Source: patent US9623031B2, “Compositions, methods and kits for treating cancer” (priority 2011, dated 2017)
At least one structure is not confirmed: it was looked up by name or label, or the drawing left a doubt.

Key:
[1] = tested on: FV-LSCs (M34^+Kit^+Sca1^+); test: Apoptosis of FV-LSCs treated ex vivo (annexin V, flow cytometry); assay type: cell-based, mouse; details: 36 h; for effect of PPARγ agonist on FV-LSC proliferation/apoptosis: 0.1-2.0 μM
LSCs = test: Apoptosis of LSCs as summarised in the discussion (model not specified or both models); assay type: cell-based, mouse; details: FV-induced leukemia and BCR-ABL+ retrovirus-based murine CML model

SMILES: CC/C=C\C/C=C\C/C=C\C/C=C\C/C=C\CCCC(=O)O [EPA, eicosapentaenoic acid]
- apoptosis of FV-LSCs ([1]; 25 nM, annexin V): had no effect
- targeting of LSCs for apoptosis (LSCs): ineffective

SMILES: CN(CCOc1ccc(CC2SC(=O)NC2=O)cc1)c1ccccn1 (stereo not shown) [rosiglitazone]
- effect of PPARγ agonist on FV-LSC proliferation/apoptosis [1]: did not affect proliferation of LSC
- effect of PPARγ agonist on FV-LSC proliferation/apoptosis ([1]; listed as Rosiglizone): fail to induce apoptosis
